The target in this assay is Site-1 protease (S1P), proS1P (UniProt Q14703). Nature of the assay: co-IP.

Protein sequences, listed by entry. Tags and fused reporters are not part of them. Lines headed by an entry give the natural chain unless they say otherwise; changes in a name come on top.
UniProt Q14703: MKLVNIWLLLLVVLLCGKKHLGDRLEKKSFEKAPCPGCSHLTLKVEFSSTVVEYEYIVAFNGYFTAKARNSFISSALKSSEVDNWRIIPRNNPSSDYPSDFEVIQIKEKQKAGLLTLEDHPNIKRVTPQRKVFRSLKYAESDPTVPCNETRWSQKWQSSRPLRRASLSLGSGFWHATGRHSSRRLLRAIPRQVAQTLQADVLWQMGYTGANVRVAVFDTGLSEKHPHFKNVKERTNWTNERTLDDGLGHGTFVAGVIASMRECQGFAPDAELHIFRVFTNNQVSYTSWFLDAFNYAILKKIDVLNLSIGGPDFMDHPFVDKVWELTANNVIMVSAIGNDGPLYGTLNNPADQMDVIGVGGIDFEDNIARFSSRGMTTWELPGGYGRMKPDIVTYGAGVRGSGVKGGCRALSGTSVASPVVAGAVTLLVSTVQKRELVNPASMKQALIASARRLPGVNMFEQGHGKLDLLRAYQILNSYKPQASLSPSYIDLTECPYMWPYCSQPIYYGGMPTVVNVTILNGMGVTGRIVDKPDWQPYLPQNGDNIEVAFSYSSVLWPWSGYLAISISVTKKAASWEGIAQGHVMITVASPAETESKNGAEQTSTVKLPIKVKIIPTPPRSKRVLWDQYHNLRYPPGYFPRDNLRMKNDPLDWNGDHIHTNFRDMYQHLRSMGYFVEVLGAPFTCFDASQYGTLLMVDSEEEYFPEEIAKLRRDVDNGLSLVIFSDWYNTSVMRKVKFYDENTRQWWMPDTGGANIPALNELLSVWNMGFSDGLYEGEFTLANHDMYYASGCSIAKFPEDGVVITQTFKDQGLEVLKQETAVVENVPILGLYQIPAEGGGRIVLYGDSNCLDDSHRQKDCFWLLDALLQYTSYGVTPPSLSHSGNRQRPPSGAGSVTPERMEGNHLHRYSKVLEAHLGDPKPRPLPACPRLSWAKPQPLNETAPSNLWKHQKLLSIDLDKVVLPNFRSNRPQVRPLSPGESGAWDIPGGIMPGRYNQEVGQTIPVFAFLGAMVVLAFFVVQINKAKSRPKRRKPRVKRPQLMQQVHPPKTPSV

Results on one molecule are retold here after paper doi:10.1101/2023.03.28.534447.

Results are given in words; binding and its absence hold for the method and conditions named. Binding seen in cells or lysates may run through a third protein. A result given as binding can be weak or reduced; the word gives no strength.

B1: SPRING (C12ORF49) (protein, UniProt Q9H741 1-205)
chain: MVNLAAMVWRRLLRKRWVLALVFGLSLVYFLSSTFKQEERAVRDRNLLQVHDHNQPIPWKVQFNLGNSSRPSNQCRNSIQGKHLITDELGYVCERKDLLVNGCCNVNVPSTKQYCCDGCWPNGCCSAYEYCVSCCLQPNKQLLLERFLNRAAVAFQNLFMAVEDHFELCLAKCRTSSQSVQHENTYRDPIAKYCYGESPPELFPA
B1: the binding result is “binds”.
